In publication PMC6001170:
Results are given in words; binding and its absence hold for the method and conditions named. In cells and extracts the contact can be indirect. Some binding calls cover weakened binding; strength is not graded here.

By UniProt entry, the sequences of proteins in these tests, tags left out.
UniProt Q96A61: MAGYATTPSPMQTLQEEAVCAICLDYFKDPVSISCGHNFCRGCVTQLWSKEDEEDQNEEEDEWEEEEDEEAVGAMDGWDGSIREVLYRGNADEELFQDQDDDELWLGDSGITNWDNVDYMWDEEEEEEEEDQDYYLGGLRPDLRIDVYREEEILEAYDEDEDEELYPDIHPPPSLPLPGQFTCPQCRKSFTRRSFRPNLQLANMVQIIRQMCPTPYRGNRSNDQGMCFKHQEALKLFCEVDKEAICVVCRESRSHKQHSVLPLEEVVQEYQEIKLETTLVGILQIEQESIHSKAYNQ

Target: T1, Protein phosphatase, Mg2+/Mn2+ dependent 1A (PPM1A) (human (in the human cell lines MHCC-97H and MHCC-97L)) (UniProt P35813)
T1 sequence: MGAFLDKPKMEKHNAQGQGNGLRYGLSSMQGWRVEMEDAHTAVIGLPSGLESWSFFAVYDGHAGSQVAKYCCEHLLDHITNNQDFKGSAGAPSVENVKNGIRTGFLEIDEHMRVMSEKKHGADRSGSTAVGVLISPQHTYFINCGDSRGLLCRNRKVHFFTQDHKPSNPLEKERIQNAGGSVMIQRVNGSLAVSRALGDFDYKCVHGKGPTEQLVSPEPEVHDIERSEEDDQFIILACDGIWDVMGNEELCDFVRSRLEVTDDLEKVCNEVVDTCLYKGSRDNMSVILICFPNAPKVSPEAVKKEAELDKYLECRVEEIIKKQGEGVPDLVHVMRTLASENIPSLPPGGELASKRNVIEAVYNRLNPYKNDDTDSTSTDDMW
Experiment: co-IP; lysates of MHCC-97H and MHCC-97L cells in lysis buffer with protease inhibitors; supernatants incubated with normal IgG or antibody, Protein A-Sepharose; Western blot with anti-TRIM52 and anti-PPM1A

## Tripartite motif containing 52 (TRIM52) (from UniProt Q96A61 1-297)
  binding: binds
